# Values quoted from earlier work in US20080139517A1, “Methods of treating age associated memory impairment (AAMI), mild cognitive impairment (MCI), and dementias with cell cycle inhibitors” (priority 2002, published 2008).
# At least one structure is not confirmed: it was looked up by name or label, or the drawing left a doubt.
# What was measured:
# [1] = system: vascular smooth muscle cells; settings: through the G1/S transition
# PC12 cells = settings: presence of nerve growth factor
smiles,measurement,setting,value
Cn1cnc2c(NCc3ccccc3)nc(NCCO)nc21 [Olomoucine],cell cycle arrest,cell cycle,cell cycle arrest at the G1 phase
CO[C@H]1C[C@@H]2CC[C@@H](C)[C@@](O)(O2)C(=O)C(=O)N2CCCC[C@H]2C(=O)O[C@H]([C@H](C)C[C@@H]2CC[C@@H](O)[C@H](OC)C2)CC(=O)[C@H](C)/C=C(\C)[C@@H](O)[C@@H](OC)C(=O)[C@H](C)C[C@H](C)/C=C/C=C/C=C/1C [Sirolimus],proliferation of vascular smooth muscle cells,[1],inhibits
same,kinase activity of cdk 2/cyclin E complex,cdk 2/cyclin E,markedly reduces
same,kinase activity of cdk 4/cyclin D complex,cdk 4/cyclin D,markedly reduces
same,neurite outgrowth,PC12 cells,markedly increased
CN(C)c1ccc(O)c2c1C[C@H]1C[C@H]3[C@H](N(C)C)C(O)=C(C(N)=O)C(=O)[C@@]3(O)C(O)=C1C2=O [minocycline],nitric oxide (NO) induced p38 MAP Kinase phosphorylation,p38 MAP Kinase,inhibit
